Laboratory results: PubChem BioAssay AID1259424 (University of Nebraska Medical Center, 2018)

- Assay: 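Find knockdowns that reproduce the expression shifts seen after KSR1 loss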 (primary screen)
- System: human HCT116 colon cancer cells
- Reagent: siRNA pool against human genes, 50 nM
- Measurement: 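Six signature mRNAs by branched-DNA multiplex assay, scaled to two housekeeping genes and non-targeting median, log2; matched to mean KSR1 knockdown profile by Pearson correlation and euclidean distance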
- Scale: mean correlation with KSR1 profile: higher = expression change more like KSR1 knockdown
Shown is an unselected part of about 14,000 reagents tested. 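Higher correlation or smaller distance means closer resemblance to KSR1 loss; control wells, including KSR1 knockdowns, recur on many plates.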 Further read-outs or replicates are left out here. The record does not give: the time to read-out.

DLX5 gave mean correlation with KSR1 profile 0.171.
With knock-down of APOBEC3F, the screen gave mean correlation with KSR1 profile -0.655.
PIK3CD scored mean correlation with KSR1 profile 0.45.
Against VILL the deposit lists mean correlation with KSR1 profile 0.0164.
For EED the deposit lists mean correlation with KSR1 profile -0.0313.
KLHL24 showed mean correlation with KSR1 profile 0.542.
For PTGIS, the values are mean correlation with KSR1 profile 0.376.
After knock-down of SEMA3B, the screen gave mean correlation with KSR1 profile 0.588.
OTX2 gave mean correlation with KSR1 profile 0.159.
SCG3 showed mean correlation with KSR1 profile -0.0493.
Against GPR85, the entry reads mean correlation with KSR1 profile 0.457.
For SCNN1G the deposit lists mean correlation with KSR1 profile -0.508.
Against RIT1, the entry reads mean correlation with KSR1 profile -0.0902.
TPCN2 scored mean correlation with KSR1 profile -0.301.
SNX6 showed mean correlation with KSR1 profile -0.203.
With knock-down of ARFGAP2, the record shows mean correlation with KSR1 profile 0.826.
Silencing of KCTD15 resulted in: mean correlation with KSR1 profile 0.528.
PGM5 scored mean correlation with KSR1 profile 0.446.
Against RBM19 the deposit lists mean correlation with KSR1 profile 0.317.
MTTP gave mean correlation with KSR1 profile 0.0652.
CTPS2 scored mean correlation with KSR1 profile -0.554.
For RXFP4, the entry reads mean correlation with KSR1 profile 0.575.
Against IQCH the deposit lists mean correlation with KSR1 profile 0.342.
After knock-down of TMX3, the screen gave mean correlation with KSR1 profile -0.198.
Against DIO3, the values are mean correlation with KSR1 profile -0.0947.
With knock-down of PPP1R11, the record shows mean correlation with KSR1 profile -0.296.
Silencing of CHRND came out at: mean correlation with KSR1 profile -0.163.
Against SFRP4 the deposit lists mean correlation with KSR1 profile 0.0495.

4 of these entries, reformatted:
Gene | mean correlation with KSR1 profile
GPR85 | 0.457
SCNN1G | -0.508
RIT1 | -0.0902
TPCN2 | -0.301
